For this test, the target named is T1, NAD(P)H oxidase 4 (NOX4) (rat (endogenous in rat chondrocytes)) (UniProt Q924V1).
T1 sequence: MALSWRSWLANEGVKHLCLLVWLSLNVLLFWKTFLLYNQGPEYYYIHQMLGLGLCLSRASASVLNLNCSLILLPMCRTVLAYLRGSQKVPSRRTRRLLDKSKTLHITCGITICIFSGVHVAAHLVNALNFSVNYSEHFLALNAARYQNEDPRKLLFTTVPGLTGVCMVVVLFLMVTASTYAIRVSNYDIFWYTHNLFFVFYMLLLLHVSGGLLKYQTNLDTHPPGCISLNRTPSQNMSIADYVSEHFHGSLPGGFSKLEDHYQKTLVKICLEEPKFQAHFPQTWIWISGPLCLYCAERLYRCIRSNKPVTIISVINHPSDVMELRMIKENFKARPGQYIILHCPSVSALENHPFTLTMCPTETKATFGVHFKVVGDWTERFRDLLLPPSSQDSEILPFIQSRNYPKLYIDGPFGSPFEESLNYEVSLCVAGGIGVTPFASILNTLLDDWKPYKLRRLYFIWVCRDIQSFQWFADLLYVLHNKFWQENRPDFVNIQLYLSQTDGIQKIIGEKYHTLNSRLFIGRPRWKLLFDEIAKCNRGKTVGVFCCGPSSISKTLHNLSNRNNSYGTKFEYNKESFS
Description: co-IP; rat chondrocyte lysates in RIPA buffer incubated with anti-USP7, anti-NOX4 or normal IgG at 4°C overnight, protein A/G beads 4°C 2 h, three washes with lysis buffer, immunoblot with anti-USP7 and anti-NOX4. In general terms: A western blot detects proteins with antibodies after separation by electrophoresis.

The chains behind the UniProt entries cited, without tags or fusion partners.
UniProt Q4VSI4: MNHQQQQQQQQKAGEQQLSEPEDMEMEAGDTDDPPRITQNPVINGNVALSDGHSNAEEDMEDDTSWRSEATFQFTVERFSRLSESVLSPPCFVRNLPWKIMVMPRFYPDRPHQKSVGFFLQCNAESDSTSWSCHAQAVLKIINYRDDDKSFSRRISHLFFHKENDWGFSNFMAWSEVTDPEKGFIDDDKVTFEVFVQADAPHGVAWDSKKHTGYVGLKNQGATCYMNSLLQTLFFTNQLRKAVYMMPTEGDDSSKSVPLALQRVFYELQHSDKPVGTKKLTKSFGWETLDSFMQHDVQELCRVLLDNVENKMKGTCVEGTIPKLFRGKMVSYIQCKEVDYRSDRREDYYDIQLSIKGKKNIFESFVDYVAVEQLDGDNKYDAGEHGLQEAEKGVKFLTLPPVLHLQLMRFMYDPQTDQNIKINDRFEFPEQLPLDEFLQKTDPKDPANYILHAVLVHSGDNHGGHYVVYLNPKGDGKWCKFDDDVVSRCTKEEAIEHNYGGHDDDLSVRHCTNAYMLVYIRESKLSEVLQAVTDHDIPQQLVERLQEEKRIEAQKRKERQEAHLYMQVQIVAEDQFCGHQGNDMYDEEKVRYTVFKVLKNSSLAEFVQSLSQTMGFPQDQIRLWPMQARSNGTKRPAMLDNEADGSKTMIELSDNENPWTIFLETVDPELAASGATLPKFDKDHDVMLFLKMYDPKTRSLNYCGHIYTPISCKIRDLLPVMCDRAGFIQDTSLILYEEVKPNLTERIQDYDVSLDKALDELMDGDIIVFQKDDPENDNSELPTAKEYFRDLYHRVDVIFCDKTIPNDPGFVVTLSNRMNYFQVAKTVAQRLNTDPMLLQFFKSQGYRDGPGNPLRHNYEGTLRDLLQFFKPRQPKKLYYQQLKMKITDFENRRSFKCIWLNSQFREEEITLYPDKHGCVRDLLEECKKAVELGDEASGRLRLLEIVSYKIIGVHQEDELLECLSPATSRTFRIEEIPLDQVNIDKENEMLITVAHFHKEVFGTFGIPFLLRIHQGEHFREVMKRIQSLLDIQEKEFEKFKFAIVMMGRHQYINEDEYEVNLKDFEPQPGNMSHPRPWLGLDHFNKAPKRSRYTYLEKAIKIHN

Results are given in words; binding and its absence hold for the method and conditions named. In cells and extracts the contact can be indirect. Some results given as binding are weak or reduced against the parent protein; the word gives no strength.

This passage reports binding results from paper PMC7879569.

As for “ubiquitin-specific protease 7 (USP7) (from UniProt Q4VSI4 1-1103) (enzyme)”, the binding result was “binds”.
